Results are given in words; binding and its absence hold for the method and conditions named. In cells and extracts the contact can be indirect. Some entries that bind do so weakly or less than the wild type.

The test has as its target von Hippel–Lindau (VHL) protein (pVHL), mouse heart (mouse (endogenous in mouse heart)), P40338. Nature of the test: co-IP; mouse heart homogenates (WT, TgPLN^R9C, NHE1-Tg mice, 16 weeks) precipitated with anti-pVHL antibody on SureBeads Protein G Magnetic Beads; Western blot with anti-PLN antibody. As to conditions: remark: other sources report otherwise. In general terms: A western blot detects proteins with antibodies after separation by electrophoresis.

B1: phospholamban (PLN), mouse heart, P61014 1-52 (protein)
chain: MEKVQYLTRSAIRRASTIEMPQQARQNLQNLFINFCLILICLLLICIIVMLL
For the molecule B1, the binding entry is “binds”.

The values are drawn from paper PMC5713202.
